Source: PubChem BioAssay AID1347423 (Functional Genomics Laboratory (NCATS/FGL), 2020)
The campaign covered roughly 52,000 sequences. About 210 (0.4%) were called active.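 Rule for the calls: active = gene whose silencing raises cell survival under the drug, median off-target-corrected z-score across its silencing RNAs 2 or more; inactive = the rest.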 The list shows a part of the results.

Test: Resistance to Poly (ADP-Ribose) Polymerase inhibitor: Gene Identification via Genome-wide siRNA Screen
Conditions: mouse BRCA2 R2336H ES cells, olaparib, CellTiter-Glo viability; stronger effect = higher value
In short: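 Mouse BRCA2 R2336H ES cells were reverse-transfected with siRNA (20 nM final), treated at 48 h with 500 nM olaparib, and read by CellTiter-Glo after 72 h. Scores: MAD-based z per siRNA, median per gene, seed off-target correction.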

Row | Sequence | z-score
1 | GGUGACAUUUGAGAUCUAUTT against Plcg2 | inactive: -0.97
2 | GGGACAAUGAAUGUGAUCUTT against 1700056P18Rik | inactive: -0.649
3 | GGCCCAUGAUCCAUUUUGGTT against Prnp | inactive: 0.948
4 | GGUCUUCUUCUUCAAAGCUTT against Mrpl46 | inactive: -0.301
5 | GCUUAAGGACGCAUUGAAATT against Pthlh | inactive: -0.0187
6 | GCCACUAUACAUAUUCUGGTT against Pcdhb18 | inactive: 1.43
7 | GGUGUGGUCAAGAAAGUGGTT against Atp6v1c1 | inactive: -1.5
8 | CCGAUUUUGUGGCCUCAUGTT against Grcc2f | inactive: -1.69
9 | GGAAGAUCAUCCUAUUAUGTT against Wdr26 | inactive: -0.526
10 | GCGAUAGCAUAUCCUAUCCTT against Gnb1 | inactive: 0.0208
11 | CAAGUUAAGGAACUAUGAUTT against LOC432823 | inactive: 1.17
12 | GGAGAUCAUGUCAAAAAAGTT against 5430411K16Rik | inactive: -0.0837
13 | GGGCAUGAAGUUUCUGAUCTT against Fgf17 | inactive: 1.27
14 | GCAACUCAGAAUGUAGUGUTT against Gnai1 | inactive: 0.0155
15 | CCAAGGCUCACCUUCCAAUTT against Sla | inactive: -1.39
16 | GGCAGAUCUUCUUUGGAAATT against 9430041C03Rik | inactive: 1.47
17 | GGAGAGUGCUGAUGUUCUGTT against Psx1 | inactive: -0.913
18 | CCAGAAACUGACCUCAACCTT against Ltb | inactive: -0.873
19 | GGGUUUCUAGUCCUGUUUCTT against Cplx2 | inactive: -0.545
20 | GUGUCUCUGUACUUAUUAUTT against Olfr483 | inactive: 0.104
21 | GCCCUCAAUAACUAUGUACTT against Il2 | inactive: 2.24
22 | GGACCUAAGAAACUGCUUATT against Ccr7 | inactive: 1.04
23 | GGAUGAAAAUCAAUUCUCCTT against Nusap1 | inactive: -0.597
24 | ACGACGAUCUUUCAGAAGUTT against MGI:2684414 | inactive: -0.0804
25 | GGAGUGUUUAAAUAUAGCCTT against Mtmr9 | inactive: 0.651
26 | GGAACAAACCUUCAUUUAGTT against Osbp2 | inactive: 1.08
27 | AACAUUGUAUAUCUCUCAUTT against Saa1 | inactive: -0.237
28 | CCGAAAUGGACAUAUCAUUTT against Trim3 | inactive: 0.412
29 | GGUGGUUUAAGAAAUCAAATT against Dolpp1 | inactive: -0.011

A few values from the entries so far.
GCGAUAGCAUAUCCUAUCCTT against Gnb1 | z-score: inactive: 0.0208
GGACCUAAGAAACUGCUUATT against Ccr7 | z-score: inactive: 1.04
